Values from PubChem BioAssay AID1259271 (Sanger Institute, 2017)

Assay: 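Kinase siRNAs that make BYL719, cetuximab or trametinib kill more cells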 (follow-up of hits)
Cells: RKO colorectal cancer cells
Knock-down reagent: single siRNA against human genes
Conditions: anchor drug added to each siRNA well, cetuximab 5 µg/ml, trametinib 10 nM or BYL719 1 µM, compared with DMSO vehicle; exposure length not given
Detection: 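Synergy score for each anchor drug (trametinib 10 nM, cetuximab 5 µg/ml, BYL719 1 µM, against DMSO) and survival versus control pool 2 (non-targeting), each a replicate mean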
Direction: synergy score with BYL719 and synergy score with cetuximab and synergy score with trametinib: higher = stronger synthetic lethality with the drug
Active means: 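Any anchor drug giving synergy above 0.10 makes the siRNA a hit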
Meaning of the calls: active = synergy with at least one drug; inactive = no synergy with any drug
The whole screen tested 160 reagents; shown is a random part of them. Over the whole deposit, 124 (78%) got an active call. 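Each row is one of four siRNAs per gene; gene-level confirmation, requiring two siRNAs in several cell lines, is not included.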 The numbers tell different reagents against one gene apart. Not all columns of the deposit are shown. Reagent sequences are not shown. The record does not give: the amount of reagent, the time to read-out.

| gene | reagent | synergy score with BYL719 | synergy score with cetuximab | synergy score with trametinib | call |
| --- | --- | --- | --- | --- | --- |
| KCNH8 (potassium voltage-gated channel subfamily H member 8) | 1 | 0.0546 | 0.0727 | 0.343 | active |
| KCNH8 (potassium voltage-gated channel subfamily H member 8) | 2 | 0.159 | 0.0724 | 0.301 | active |
| KCNH8 (potassium voltage-gated channel subfamily H member 8) | 3 | -0.00924 | -0.117 | 0.141 | active |
| KCNH8 (potassium voltage-gated channel subfamily H member 8) | 4 | 0.131 | 0.305 | 0.302 | active |
| PIM1 (Pim-1 proto-oncogene, serine/threonine kinase) | 1 | 0.0768 | 0.103 | 0.223 | active |
| PIM1 (Pim-1 proto-oncogene, serine/threonine kinase) | 2 | 0.144 | 0.0994 | 0.112 | active |
| PIM1 (Pim-1 proto-oncogene, serine/threonine kinase) | 3 | 0.0855 | 0.194 | 0.254 | active |
| PIM1 (Pim-1 proto-oncogene, serine/threonine kinase) | 4 | 0.206 | 0.0897 | 0.312 | active |
| BRAF (B-Raf proto-oncogene, serine/threonine kinase) | 1 | 0.3 | 0.164 | 0.189 | active |
| BRAF (B-Raf proto-oncogene, serine/threonine kinase) | 2 | 0.366 | 0.159 | 0.324 | active |
| BRAF (B-Raf proto-oncogene, serine/threonine kinase) | 3 | 0.294 | 0.205 | 0.283 | active |
| BRAF (B-Raf proto-oncogene, serine/threonine kinase) | 4 | 0.408 | 0.293 | 0.381 | active |
| HSPB8 (heat shock protein family B (small) member 8) | 1 | 0.0831 | 0.097 | 0.283 | active |
| HSPB8 (heat shock protein family B (small) member 8) | 2 | 0.0613 | 0.242 | 0.161 | active |
| HSPB8 (heat shock protein family B (small) member 8) | 3 | -0.0607 | 0.11 | 0.00196 | active |
| HSPB8 (heat shock protein family B (small) member 8) | 4 | 0.14 | 0.155 | 0.239 | active |

Targets listed so far whose target name starts with K or k (4):
| gene | reagent | synergy score with BYL719 | synergy score with cetuximab | synergy score with trametinib | call |
| --- | --- | --- | --- | --- | --- |
| KCNH8 (potassium voltage-gated channel subfamily H member 8) | 1 | 0.0546 | 0.0727 | 0.343 | active |
| KCNH8 (potassium voltage-gated channel subfamily H member 8) | 2 | 0.159 | 0.0724 | 0.301 | active |
| KCNH8 (potassium voltage-gated channel subfamily H member 8) | 3 | -0.00924 | -0.117 | 0.141 | active |
| KCNH8 (potassium voltage-gated channel subfamily H member 8) | 4 | 0.131 | 0.305 | 0.302 | active |

The results go on.
| gene | reagent | synergy score with BYL719 | synergy score with cetuximab | synergy score with trametinib | call |
| --- | --- | --- | --- | --- | --- |
| CDKN2D (cyclin dependent kinase inhibitor 2D) | 1 | 0.0103 | 0.161 | 0.171 | active |
| CDKN2D (cyclin dependent kinase inhibitor 2D) | 2 | 0.216 | 0.0411 | 0.243 | active |
| CDKN2D (cyclin dependent kinase inhibitor 2D) | 3 | 0.141 | 0.144 | 0.205 | active |
| CDKN2D (cyclin dependent kinase inhibitor 2D) | 4 | 0.31 | 0.264 | 0.37 | active |
| RPS6KA4 (ribosomal protein S6 kinase A4) | 1 | 0.0552 | 0.178 | 0.233 | active |
| RPS6KA4 (ribosomal protein S6 kinase A4) | 2 | 0.303 | 0.341 | 0.276 | active |
| RPS6KA4 (ribosomal protein S6 kinase A4) | 3 | 0.0443 | 0.176 | 0.207 | active |
| RPS6KA4 (ribosomal protein S6 kinase A4) | 4 | 0.0682 | 0.0744 | 0.214 | active |
| PLK1 (polo like kinase 1) | 1 | 0.00783 | 0.0362 | 0.0708 | inactive |
| PLK1 (polo like kinase 1) | 2 | 0.00428 | 0.0889 | 0.0546 | inactive |
| PLK1 (polo like kinase 1) | 3 | 0.0143 | 0.053 | 0.0576 | inactive |
| PLK1 (polo like kinase 1) | 4 | -0.0373 | 0.00755 | 0.0444 | inactive |
| EPHA6 (EPH receptor A6) | 1 | 0.0505 | 0.0943 | 0.277 | active |
| EPHA6 (EPH receptor A6) | 2 | 0.285 | 0.334 | 0.395 | active |
| EPHA6 (EPH receptor A6) | 3 | 0.121 | 0.242 | 0.397 | active |
| EPHA6 (EPH receptor A6) | 4 | 0.183 | 0.23 | 0.212 | active |
